From PubChem BioAssay AID1671190 (National Center for Advancing Translational Sciences (NCATS), 2021)
Values joined by “and” are separate entries in the source; they are usually repeats but may differ in a detail not shown here. Equal values may be shown once. About 6,100 (1.1%) of roughly 580,000 compounds were called active. This list was built around the results that the source calls inconclusive (neither active nor inactive); the mix of calls is not that of the screen. Calls come from the whole dose curve; as a rule, active = well fitted inhibition curve with a large enough effect; inconclusive = small, poorly fitted or top-dose-only effect, or another doubt; inactive = no such curve, though single readings can be large or run the other way. Where the call is inconclusive, the potency comes from a doubtful curve fit.

By UniProt entry, the sequences of proteins in these tests, tags left out. Where a name states a change or a piece, a line headed by the entry shows the natural chain unless it says otherwise.
UniProt P18054: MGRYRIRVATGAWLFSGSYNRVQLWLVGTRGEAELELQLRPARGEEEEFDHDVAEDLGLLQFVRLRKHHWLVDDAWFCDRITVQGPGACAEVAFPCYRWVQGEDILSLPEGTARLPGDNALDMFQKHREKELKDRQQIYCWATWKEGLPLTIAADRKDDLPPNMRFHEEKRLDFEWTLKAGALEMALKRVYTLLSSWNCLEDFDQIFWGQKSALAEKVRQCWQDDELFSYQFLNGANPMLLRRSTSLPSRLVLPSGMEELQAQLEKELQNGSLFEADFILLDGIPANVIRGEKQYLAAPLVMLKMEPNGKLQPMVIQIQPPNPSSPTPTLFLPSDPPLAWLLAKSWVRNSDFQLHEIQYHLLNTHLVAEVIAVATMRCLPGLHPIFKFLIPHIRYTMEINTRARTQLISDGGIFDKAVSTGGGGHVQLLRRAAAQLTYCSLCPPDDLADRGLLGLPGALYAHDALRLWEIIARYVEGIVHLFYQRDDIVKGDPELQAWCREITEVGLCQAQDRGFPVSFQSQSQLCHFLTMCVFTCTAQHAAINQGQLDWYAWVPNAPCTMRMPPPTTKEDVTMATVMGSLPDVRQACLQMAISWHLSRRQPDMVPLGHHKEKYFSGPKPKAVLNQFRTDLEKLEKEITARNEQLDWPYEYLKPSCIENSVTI

Target: Polyunsaturated fatty acid lipoxygenase ALOX12 (Homo sapiens) (UniProt P18054)
Test: Primary qHTS assay for inhibitors of human arachidonate 12S-lipoxygenase (ALOX12): Round 2
Conditions: purified 12hLO, xylenol orange hydroperoxide absorbance; activity change, negative = inhibition: at 108 µM (top of the series) unless noted
Method in brief: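 Hydroperoxide product was detected by ferrous iron/xylenol orange as the 573 to 405 nm absorbance ratio. Arachidonic acid at 40 uM (final) was turned over for 30 min at room temperature by 150 nM human 12hLO, pH 7.0 Hepes buffer, after 15 min compound preincubation.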
% is set by controls: 0 for no effect and ±100 for the full control effect; potency is the fitted concentration of half-maximal effect.

| SMILES | activity change, negative = inhibition | Potency |
| --- | --- | --- |
| O=[N+]([O-])c1ccccc1/C=C/C=N/n1c(-c2ccccc2F)n[nH]c1=S | inactive: -27.6% |  |
| Cn1cnc(S(=O)(=O)N2CC[C@@H]3COCCN(Cc4ccccc4)[C@@H]3C2)c1 | inactive: 41.1% |  |
| COc1ccccc1N1CCN(C2CCC(C)CC2)CC1 (stereo not given) |  | inconclusive: 44.7 µM [inhibitor, partial curve, poor fit] |
| CCC(=O)Nc1sc2c(c1C(=O)Nc1ccc(OC)cc1)CCC(C(C)(C)C)C2 (stereo not given) |  | inactive |
| C[C@@H]1CN([C@@H](C)CO)C(=O)CCCn2nncc2CO[C@@H]1CN(C)C(=O)c1ccc2ccn(C)c2c1 |  | inconclusive: 44.7 µM [inhibitor, single point] |
| CC(C)NC(=O)c1ccc(CSCc2ccccc2Cl)o1 |  | inactive |
| C[C@@H]1CN([C@@H](C)CO)C(=O)Cc2cc(NC(=O)Nc3ccc(C(F)(F)F)cc3)ccc2O[C@@H]1CN(C)S(=O)(=O)c1ccc(Cl)cc1 |  | inconclusive: 10 µM [inhibitor, partial curve] |
| OC(c1ccccc1)(c1nc(-c2cc3ccccc3o2)cs1)C(F)(F)F (stereo not given) |  | inconclusive: 39.8 µM [inhibitor, partial curve, poor fit] |
| Cc1nnc(SCC(=O)N(CC(C)C)c2c(N)n(Cc3ccccc3)c(=O)[nH]c2=O)n1N |  | inconclusive: 44.7 µM [inhibitor, partial curve, poor fit] |
| COc1ccc(OC)c2sc(N3CCN(C(=O)C4CCCCC4)CC3)nc12 |  | inconclusive: 0.224 µM [inhibitor, full curve, poor fit] |
| CCOC(=O)N1CCC(NCCNC(=O)c2ccc(Cl)cc2)CC1 |  | inconclusive: 0.794 µM [inhibitor, full curve, poor fit] |
| O=C(O)c1ccc(CN2C(=O)c3ccc(C(=O)O)cc3C2=O)cc1 | inactive: 0% |  |
| CC(C)(Oc1ccc(Cl)cc1)c1nn2c(COc3ccc(F)cc3)nnc2s1 |  | inconclusive: 44.7 µM [inhibitor, partial curve] |
| CCOC(=O)c1cc2c(=O)n3cccc(C)c3nc2n(Cc2ccco2)c1=NC(=O)c1ccccc1 |  | inactive and inconclusive: 31.6 µM [inhibitor, partial curve, poor fit] |
| COc1ccc(NC(=S)Nc2ccc(OC(F)F)cc2)cn1 |  | inconclusive: 39.8 µM [inhibitor, partial curve, poor fit] |
| Cc1c(C(=O)NCc2ccc3c(c2)OCO3)oc2ccccc12 |  | inconclusive: 63.1 µM [inhibitor, partial curve, poor fit] |
| CC1=NN(c2ccccc2)C(=O)C1/C=C1/NC(=S)NC1=O (stereo not given) |  | inconclusive: 39.8 µM [inhibitor, partial curve, poor fit] |
| Nc1c(Cl)cc(-c2cn(CCC(=O)O)c(=O)cn2)cc1Cl |  | inconclusive: 44.7 µM [inhibitor, partial curve, poor fit] |
| CCCCc1c(-c2ccccc2Br)ncn1CCc1ccccc1OC |  | inconclusive: 44.7 µM [inhibitor, partial curve, poor fit] |
| COCc1ccc(-c2c(-c3ccccc3OC)sc3cc4c(cc23)OCO4)cc1 |  | inconclusive: 12.6 µM [inhibitor, full curve] |
| Cc1ccc(CNC(=O)C2(C)CCN2C(=O)Cc2ccc(-c3ccccc3)cc2)cc1 (stereo not given) |  | inconclusive: 100 µM [inhibitor, single point] |

| SMILES | activity change, negative = inhibition | Potency |
| --- | --- | --- |
| O=C(OCCN1CCOCC1)C(c1ccccc1)c1ccccc1 |  | inconclusive: 2.24 µM [inhibitor, full curve, poor fit] |
| Nc1nc(SCC(=O)NCc2ccc(F)cc2)n[nH]1 | inactive: 12.6% |  |
| Cn1cccc1C(=O)N1CCC2(CCN(Cc3ccc(C#N)cc3)CC2)CC1 |  | inconclusive: 35.5 µM [inhibitor, single point] |
| COc1ccc2c3c([nH]c2c1)[C@@H](CO)N(Cc1ccccc1)CC31CN(C(=O)Cc2ccccc2)C1 |  | active: 5.01 µM |
| COc1cc(NC(=O)C2CC(c3cccc(Br)c3)=NO2)cc(OC)c1OC (stereo not given) | inactive: -8.17% |  |
| COc1ccccc1-c1nccc2c(=O)cc(N3CCOCC3)oc12 | inactive: -6.54% [at 176 µM] |  |
| Cc1cc(Br)cn2c(Cc3ccsc3)c(C(C)(C)C)nc12 |  | active: 35.5 µM |
| COc1ccc(-n2c(SC3CCOC3=O)nc3ccccc3c2=O)cc1OC (stereo not given) | inconclusive: -31.1% [inhibitor] |  |
| Cc1cc(C(=O)Nc2sccc2C#N)c2ccccc2n1 | inactive: -0.635% |  |
| Cc1ccc(-c2nc3ccc(Cl)cn3c2CC2CCCCC2)cc1 |  | inconclusive: 35.5 µM [inhibitor, partial curve, poor fit] |
| C/C(=N/NC(=O)c1cccs1)c1c(C)[nH]n(-c2nc3ccccc3s2)c1=O |  | inconclusive: 39.8 µM [inhibitor, partial curve, poor fit] |
| O=C(c1cccc(Br)c1)N(Cc1cccc2[nH]ccc12)C1CC1 |  | inconclusive: 50.1 µM [inhibitor, partial curve, poor fit] |
| Cc1cnc(CNc2cc(-c3ccccc3C)ncn2)cn1 |  | inconclusive: 1.58 µM [inhibitor, full curve, poor fit] |
| CC(C1CC1)N(C(=O)c1ccccc1[N+](=O)[O-])c1ccccc1 (stereo not given) |  | inconclusive: 79.4 µM [inhibitor, single point] |
| S=c1[nH]nc(-c2n[nH]c3c2CCC3)n1/N=C/c1c2ccccc2cc2ccccc12 |  | inconclusive: 8.91 µM [inhibitor, full curve, poor fit] |
| O=C(Cn1cnc2c(oc3ccccc32)c1=O)NCc1ccccc1 | inactive: -1.04% |  |
| Cc1[nH]c(=O)[nH]c(=O)c1CCC(=O)Nc1nc(C2CC2)cs1 |  | inconclusive: 63.1 µM [inhibitor, single point] |
| NC(=O)NNC(=S)Nc1ccc(Cl)cc1Cl |  | inconclusive: 31.6 µM [inhibitor, partial curve, poor fit] |
| CC1=CC(=O)OC1Cc1ccc2ccccc2n1 (stereo not given) |  | inconclusive: 31.6 µM [inhibitor, partial curve, poor fit] |
| CN(C)c1ccc(-c2cc(-c3ccc(=O)[nH]c3)c3cncn3c2)cc1 |  | inconclusive: 7.08 µM [inhibitor, full curve] |
| COc1ccccc1N1CCN(C(=O)C(NS(=O)(=O)c2cccs2)c2ccccc2)CC1 (stereo not given) | inactive: 7.3% |  |
| O=C1C=C(Nc2ccc(Cl)cc2Cl)CC(c2ccco2)C1 (stereo not given) |  | inconclusive: 44.7 µM [inhibitor, partial curve, poor fit] |

2 consecutive records from above, quoted:

| SMILES | activity change, negative = inhibition | Potency |
| --- | --- | --- |
| Cc1ccc(-c2nc3ccc(Cl)cn3c2CC2CCCCC2)cc1 |  | inconclusive: 35.5 µM [inhibitor, partial curve, poor fit] |
| C/C(=N/NC(=O)c1cccs1)c1c(C)[nH]n(-c2nc3ccccc3s2)c1=O |  | inconclusive: 39.8 µM [inhibitor, partial curve, poor fit] |

Next part:

| SMILES | activity change, negative = inhibition | Potency |
| --- | --- | --- |
| Cc1nnc(SCCn2c(N3CCN(C)CC3)nc3c2c(=O)n(C)c(=O)n3C)s1 |  | inconclusive: 4.47 µM [inhibitor, full curve, poor fit] |
| CCCC[C@@H]1CC2=C(C(=O)OC(C)(C)O2)[C@@H](c2ccc(F)cc2)O1 |  | inconclusive: 89.1 µM [inhibitor, single point] |
| CC1(C)C(c2ccccc2)=[N+]([O-])C2(CCCCC2=O)N1O (stereo not given) | inactive: -31.7% |  |
| Cc1ccccc1Cn1c(NC2CCCC2)nc2c1c(=O)[nH]c(=O)n2C |  | inconclusive: 112 µM [inhibitor, single point] |
| O=C(NC(=S)Nc1cccc2ncccc12)c1ccccc1 |  | inconclusive: 28.2 µM [inhibitor, full curve, poor fit] |
| CCCCCn1nc(C(=O)OCc2ccc(C(=O)OC)cc2)c2ccccc2c1=O | inactive: 8.66% |  |
| Cc1c(O)ccc2c(CC(=O)N[C@@H](Cc3ccccc3)C(=O)O)cc(=O)oc12 |  | inconclusive: 3.16 µM [inhibitor, full curve, poor fit] |
| CCN(CC)C(=O)Oc1cc(=O)n2c3c(cccc13)CCC2 | inactive: -3.6% |  |
| CCOc1cc(NC(=S)NCCCN2CCOCC2)c(OCC)cc1NC(=O)c1cccs1 |  | inconclusive: 39.8 µM [inhibitor, partial curve, poor fit] |
| COc1cccc(S(=O)(=O)N(C)C[C@@H]2Oc3ncc(C#CCN(C)C)cc3C(=O)N([C@H](C)CO)C[C@H]2C)c1 | inactive: 6.87% |  |
| CCn1c(C)cc(/C=C2/SC(=S)N(CC(=O)O)C2=O)c1C |  | inconclusive: 44.7 µM [inhibitor, partial curve, poor fit] |
| COC(=O)CCCNC(=O)CN1CCCCCC1 |  | inconclusive: 50.1 µM [inhibitor, partial curve, poor fit] |
| CN(C)c1ccc(S(=O)(=O)c2ccc(Cl)cc2)cc1 | inactive: -12.7% |  |
| O=C(NCCCCNC(=O)C(c1ccccc1)c1ccccc1)C(c1ccccc1)c1ccccc1 |  | inconclusive: 112 µM [inhibitor, single point] |
| O=C(O)C1(Nc2ccc([N+](=O)[O-])cc2[N+](=O)[O-])CCCC1 |  | inconclusive: 63.1 µM [inhibitor, partial curve, poor fit] |
| COCCN1C2=C(COC(C)(C)C2)C(=S)NC1c1ccccc1 (stereo not given) |  | inconclusive: 25.1 µM [inhibitor, partial curve, poor fit] |
| Cc1nn(CCC#N)c2[nH]c(=O)cc(C(F)(F)F)c12 | inactive: -0.724% |  |
| c1cncc(CNc2ccnc(-c3cccnc3)n2)c1 |  | inconclusive: 39.8 µM [inhibitor, partial curve] |
| O=C(N/N=C/c1ccncc1)c1cc([N+](=O)[O-])cc([N+](=O)[O-])c1O |  | active: 50.1 µM |
| Cc1ccc(N2CCN(C(=O)CCc3c(C)nc4ncnn4c3C)CC2)c(C)c1 | inactive: -10.9% |  |
| NC(=O)c1ccc(Nc2ccc3nonc3c2[N+](=O)[O-])cc1 |  | inconclusive: 44.7 µM [inhibitor, partial curve, poor fit] |
